No constants are given. Whether binding was seen depends on the method and setting. Binding seen in cells or lysates may run through a third protein. A yes stands for co-enrichment or nearness to the bait. Other partners may have been found. For part of these data: Sequences can lack the tags named with a protein.

Protein sequences, listed by entry. Tags and fused reporters are not part of them. Lines headed by an entry give the natural chain unless they say otherwise; changes in a name come on top.
UniProt Q07540: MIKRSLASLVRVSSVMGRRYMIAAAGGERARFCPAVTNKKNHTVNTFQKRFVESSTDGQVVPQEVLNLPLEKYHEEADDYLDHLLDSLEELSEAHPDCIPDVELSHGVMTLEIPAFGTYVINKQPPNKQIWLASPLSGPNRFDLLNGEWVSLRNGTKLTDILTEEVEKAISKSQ

This is an account of results in PMC5675994.

In experiment [1] the target is T1, Nfs1-His6 (S. cerevisiae) (UniProt P25374).
T1 sequence: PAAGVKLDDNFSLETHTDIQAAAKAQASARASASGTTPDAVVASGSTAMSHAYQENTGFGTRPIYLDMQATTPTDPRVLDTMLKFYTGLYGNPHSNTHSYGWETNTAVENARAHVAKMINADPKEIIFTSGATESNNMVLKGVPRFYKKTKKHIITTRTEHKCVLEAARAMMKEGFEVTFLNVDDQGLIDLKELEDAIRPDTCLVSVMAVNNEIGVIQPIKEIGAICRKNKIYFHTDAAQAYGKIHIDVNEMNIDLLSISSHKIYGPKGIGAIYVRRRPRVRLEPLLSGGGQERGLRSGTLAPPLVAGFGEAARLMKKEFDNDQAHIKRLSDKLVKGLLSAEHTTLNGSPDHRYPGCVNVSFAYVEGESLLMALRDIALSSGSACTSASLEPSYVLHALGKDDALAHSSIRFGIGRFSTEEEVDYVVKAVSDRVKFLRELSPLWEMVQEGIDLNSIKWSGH
The experiment can be described thus: affinity purification with mass spectrometry; Nfs1-His6 held on Ni-NTA superflow agarose from sonicated, cleared lysate of isolated mitochondria of the Gal-Nfs1-His6 yeast strain; 50 mM TrisCl pH 7.5, 80 mM KCl, 10% glycerol, wash 40 mM imidazole, elution 400 mM imidazole; eluate analysed by LC-MS/MS.

Experiment [2] concerns the target Yfh1-His6 (S. cerevisiae) (UniProt Q07540). Kind of experiment: affinity purification with mass spectrometry; Yfh1-His6 held on Ni-NTA superflow agarose from French-press lysate (108,000xg supernatant) of isolated mitochondria of the Yfh1-His6 yeast strain; 50 mM TrisCl pH 7.5, 80 mM KCl, 10% glycerol, wash 40 mM imidazole with 0.1% Triton X-100, elution 400 mM imidazole; eluate analysed by LC-MS/MS.

B1: GTP cyclohydrolase 1 (protein, UniProt P51601 1-243)
chain: MHNIQLVQEIERHETPLNIRPTSPYTLNPPVERDGFSWPSVGTRQRAEETEEEEKERIQRISGAIKTILTELGEDVNREGLLDTPQRYAKAMLYFTKGYQTNIMDDVIKNAVFEEDHDEMVIVRDIEIYSLCEHHLVPFFGKVHIGYIPNKKVIGLSKLARLAEMYARRLQVQERLTKQIAMALSDILKPLGVAVVMEASHMCMVSRGIQKTGSSTVTSCMLGGFRAHKTREEFLTLLGRRSI
For the molecule B1, the binding result in experiment [1] and in experiment [2] was “binds” throughout.

B2: 2-isopropylmalate synthase (protein, UniProt P06208 1-619)
chain: MVKESIIALAEHAASRASRVIPPVKLAYKNMLKDPSSKYKPFNAPKLSNRKWPDNRITRAPRWLSTDLRDGNQSLPDPMSVEQKKEYFHKLVNIGFKEIEVSFPSASQTDFDFTRYAVENAPDDVSIQCLVQSREHLIKRTVEALTGAKKATIHTYLATSDMFREIVFNMSREEAISKAVEATKLVRKLTKDDPSQQATRWSYEFSPECFSDTPGEFAVEICEAVKKAWEPTEENPIIFNLPATVEVASPNVYADQIEYFATHITEREKVCISTHCHNDRGCGVAATELGMLAGADRVEGCLFGNGERTGNVDLVTVAMNMYTQGVSPNLDFSDLTSVLDVVERCNKIPVSQRAPYGGDLVVCAFSGSHQDAIKKGFNLQNKKRAQGETQWRIPYLPLDPKDIGRDYEAVIRVNSQSGKGGAAWVILRSLGLDLPRNMQIEFSSAVQDHADSLGRELKSDEISKLFKEAYNYNDEQYQAISLVNYNVEKFGTERRVFTGQVKVGDQIVDIEGTGNGPISSLVDALSNLLNVRFAVANYTEHSLGSGSSTQAASYIHLSYRRNADNEKAYKWGVGVSEDVGDSSVRAIFATINNIIHSGDVSIPSLAEVEGKNAAASGSA
With B2, the binding entry in experiment [1] and in experiment [2] was “binds” each time.

B3: Homoaconitase, mitochondrial (protein, UniProt P49367 18-693)
chain: LKGQNLTEKIVQSYAVNLPEGKVVHSGDYVSIKPAHCMSHDNSWPVALKFMGLGATKIKNPSQIVTTLDHDIQNKSEKNLTKYKNIENFAKKHHIDHYPAGRGIGHQIMIEEGYAFPLNMTVASDSHSNTYGGLGSLGTPIVRTDAAAIWATGQTWWQIPPVAQVELKGQLPQGVSGKDIIVALCGLFNNDQVLNHAIEFTGDSLNALPIDHRLTIANMTTEWGALSGLFPVDKTLIDWYKNRLQKLGTNNHPRINPKTIRALEEKAKIPKADKDAHYAKKLIIDLATLTHYVSGPNSVKVSNTVQDLSQQDIKINKAYLVSCTNSRLSDLQSAADVVCPTGDLNKVNKVAPGVEFYVAAASSEIEADARKSGAWEKLLKAGCIPLPSGCGPCIGLGAGLLEPGEVGISATNRNFKGRMGSKDALAYLASPAVVAASAVLGKISSPAEVLSTSEIPFSGVKTEIIENPVVEEEVNAQTEAPKQSVEILEGFPREFSGELVLCDADNINTDGIYPGKYTYQDDVPKEKMAQVCMENYDAEFRTKVHPGDIVVSGFNFGTGSSREQAATALLAKGINLVVSGSFGNIFSRNSINNALLTLEIPALIKKLREKYQGAPKELTRRTGWFLKWDVADAKVVVTEGSLDGPVILEQKVGELGKNLQEIIVKGGLEGWVKSQL
Regarding B3, the binding result in experiment [1] and in experiment [2] was “binds” each time.

B4: Enhancer of polycomb-like protein 1 (protein, UniProt P43572 1-832)
chain: MPTPSNAIEINDGSHKSGRSTRRSGSRSAHDDGLDSFSKGDSGAGASAGSSNSRFRHRKISVKQHLKIYLPNDLKHLDKDELQQREVVEIETGVEKNEEKEVHLHRILQMGSGHTKHKDYIPTPDASMTWNEYDKFYTGSFQETTSYIKFSATVEDCCGTNYNMDERDETFLNEQVNKGSSDILTEDEFEILCSSFEHAIHERQPFLSMDPESILSFEELKPTLIKSDMADFNLRNQLNHEINSHKTHFITQFDPVSQMNTRPLIQLIEKFGSKIYDYWRERKIEVNGYEIFPQLKFERPGEKEEIDPYVCFRRREVRHPRKTRRIDILNSQRLRALHQELKNAKDLALLVAKRENVSLNWINDELKIFDQRVKIKNLKRSLNISGEDDDLINHKRKRPTIVTVEQREAELRKAELKRAAAAAAAAKAKNNKRNNQLEDKSSRLTKQQQQQLLQQQQQQQQNALKTENGKQLANASSSSTSQPITSHVYVKLPSSKIPDIVLEDVDALLNSKEKNARKFVQEKMEKRKIEDADVFFNLTDDPFNPVFDMSLPKNFSTSNVPFASIASSKFQIDRSFYSSHLPEYLKGISDDIRIYDSNGRSRNKDNYNLDTKRIKKTELYDPFQENLEIHSREYPIKFRKRVGRSNIKYVDRMPNFTTSSTKSACSLMDFVDFDSIEKEQYSREGSNDTDSINVYDSKYDEFVRLYDKWKYDSPQNEYGIKFSDEPARLNQISNDTQVIRFGTMLGTKSYEQLREATIKYRRDYITRLKQKHIQHLQQQQQQQQQQQQQAQQQKQKSQNNNSNSSNSLKKLNDSLINSEAKQNSSITQKNSS
As for B4, the binding result in experiment [1] and in experiment [2] was “binds” throughout.

B5: Cytochrome b-c1 complex subunit 1, mitochondrial (protein, UniProt P07256 27-457)
chain: AEVTQLSNGIVVATEHNPSAHTASVGVVFGSGAANENPYNNGVSNLWKNIFLSKENSAVAAKEGLALSSNISRDFQSYIVSSLPGSTDKSLDFLNQSFIQQKANLLSSSNFEATKKSVLKQVQDFEENDHPNRVLEHLHSTAFQNTPLSLPTRGTLESLENLVVADLESFANNHFLNSNAVVVGTGNIKHEDLVNSIESKNLSLQTGTKPVLKKKAAFLGSEVRLRDDTLPKAWISLAVEGEPVNSPNYFVAKLAAQIFGSYNAFEPASRLQGIKLLDNIQEYQLCDNFNHFSLSYKDSGLWGFSTATRNVTMIDDLIHFTLKQWNRLTISVTDTEVERAKSLLKLQLGQLYESGNPVNDANLLGAEVLIKGSKLSLGEAFKKIDAITVKDVKAWAGKRLWDQDIAIAGTGQIEGLLDYMRIRSDMSMMRW
With B5, the binding result in experiment [1] and in experiment [2] was “binds” in each case.

B6: Protein MMF1, mitochondrial (protein, UniProt P40185 18-145)
chain: ITTLTPVSTKLAPPAAASYSQAMKANNFVYVSGQIPYTPDNKPVQGSISEKAEQVFQNVKNILAESNSSLDNIVKVNVFLADMKNFAEFNSVYAKHFHTHKPARSCVGVASLPLNVDLEMEVIAVEKN
As for B6, the binding entry in experiment [1] and in experiment [2] was “binds” in each case.

B7: Pyruvate kinase 1 (protein, UniProt P00549 1-500)
chain: MSRLERLTSLNVVAGSDLRRTSIIGTIGPKTNNPETLVALRKAGLNIVRMNFSHGSYEYHKSVIDNARKSEELYPGRPLAIALDTKGPEIRTGTTTNDVDYPIPPNHEMIFTTDDKYAKACDDKIMYVDYKNITKVISAGRIIYVDDGVLSFQVLEVVDDKTLKVKALNAGKICSHKGVNLPGTDVDLPALSEKDKEDLRFGVKNGVHMVFASFIRTANDVLTIREVLGEQGKDVKIIVKIENQQGVNNFDEILKVTDGVMVARGDLGIEIPAPEVLAVQKKLIAKSNLAGKPVICATQMLESMTYNPRPTRAEVSDVGNAILDGADCVMLSGETAKGNYPINAVTTMAETAVIAEQAIAYLPNYDDMRNCTPKPTSTTETVAASAVAAVFEQKAKAIIVLSTSGTTPRLVSKYRPNCPIILVTRCPRAARFSHLYRGVFPFVFEKEPVSDWTDDVEARINFGIEKAKEFGILKKGDTYVSIQGFKAGAGHSNTLQVSTV
B7: the binding result in experiment [1] and in experiment [2] was “binds” in each case.

B8: Altered inheritance of mitochondria protein 6 (protein, UniProt Q07716 18-390)
chain: VCALFSSRGRNPSLTDWEKLKDQKISNIDNFGLTGQHLLEFFQENLPFLSFSEEKYRHKHVSLYYDVFKEYILRRASSKKCLPVDSAIAKLNKDVNPMPVHSHNDYWRKLPLFEGLAYGASSTEADVWNIDEKILAVGHNEAYLDPVELTLDKLYTGPLLEILDEVNCQDSDADRKNGVFFNSPETSLFFYIDFKSDDNELTYKLLMEQYFKSLIDSGYLTYYDMKKDEIIWRPVTVILTGNYPTSLDILDNGNDNGYFESSQRFAFLDAPLLSLEPKYSKLSVAATVSFSQLMKHCGSDHWKVSLRGRMDSNEISCAKSIIDGAHALKLKTRIWGAPTWPANLVETISRQIIHDLGSDLLNLDNLFMASSLI
In the case of B8, the binding result in experiment [1] and in experiment [2] was “binds” throughout.

B9: Uncharacterized protein YGR266W (protein, UniProt P53326 1-701)
chain: MHATNWFDDWNPEALYRDDVTGCDDCSETSPIPKSGIICGPILRLINMDFKEKTYEGSIMVVVRGEENFPKITYQLGPSLPSEDEDIEVNEAFFEGKLFHKDILKDDNIWFYRYEIKLPMSNYEQMVKYAVDGTMEPHYRFFVPSFTQNSNVISYSCNGFSLSVDTSKFKGSLWYDVLKKHRYVHYHAILGGGDQIYSDNIKLHAPNLKAWLETKDPIKKYNTQTTEETKEQIRQFYLEHYLNWYGYGHWYGSTPKSKTTQKCFVKSLACIPAINVWDDHDIIDGYGSYNDSFMKTENFLTVGRMAYRYYMLFQQHVSASKQDGDEYAYLKSKQWILGNEKGSSYIGERSHSIFSWLGPKMAMLGLDCRTERKLHEIFSERSYSLIWERVEREIKNLKGGHLLLMLGIPIAYPRLVWLEWLFTSKLLAPIKYLSKKGIFASGFVNEFNGDVELLDDLNDHWCARHHKKERNYLIMKLQDIGAKYGVRITILSGDVHLASVGRFRAKIHRHHLIMSEEKEKENTRIIEEPTKDVRLIFNIIASAIVNTPPPDAMATLLQKRCRLHHFDLETDEDAVPIFAKEVDGVHKRKESCFMNKRNWSDIIPIENLLNNPQLSKELGVKVGDIVIPGIITEQQKLQKLENDDQINSYPVTSGGLFTTIHVERDANQTNSQTVSYCLPIPELTVTCERLSHKGIKHLNIT
Consider B9, for which the binding entry in experiment [1] and in experiment [2] was “binds” each time.
